US20240189331A1, “NOVEL […] FILM FORMULATION” (INTELGENX CORP., priority 2021, published 2024)

Experiment: In vitro permeability study in 6 station Franz diffusion cell apparatus using porcine buccal mucosa
Settings: penetration enhancer in psilocybin film formulation, FIG. 4 and FIG. 5

With `CCCCCCCCCCCCCCCC[n+]1ccccc1` [cetylpyridinium chloride (CPC), cetylpyridinium chloride] the “effect of penetration enhancer on psilocybin diffusion through porcine buccal mucosa” value was “improved buccal permeation” and the “effect of penetration enhancer on psilocybin diffusion through porcine buccal mucosa” value (listed as cetylpyridinium chloride CPC) was “significate increase”.
